Experimental data published in patent US11957735B2 (QuiaPEG Pharmaceuticals AB, priority 2018, dated 2024).

Assay: peptide synthesis
Details: conjugation step, RP-HPLC

PEG-liraglutide
purity (crude or final not stated): about 97%
